The supplement of paper PMC3334620
Whole data set: some 33,000 sequences, median “E-score (-0.5 to 0.5)” near -0.0034, cut for the highest 2% near 0.25. The list shows a part of the results.

biological target: T1, Yap3 (UniProt P38749); assay: PBM E-score (8-mer binding enrichment) (E-score (-0.5 to 0.5)); higher = stronger / more preferred TF binding; settings: protein concentration: 100 nM; construct: GST-full length
T1 sequence: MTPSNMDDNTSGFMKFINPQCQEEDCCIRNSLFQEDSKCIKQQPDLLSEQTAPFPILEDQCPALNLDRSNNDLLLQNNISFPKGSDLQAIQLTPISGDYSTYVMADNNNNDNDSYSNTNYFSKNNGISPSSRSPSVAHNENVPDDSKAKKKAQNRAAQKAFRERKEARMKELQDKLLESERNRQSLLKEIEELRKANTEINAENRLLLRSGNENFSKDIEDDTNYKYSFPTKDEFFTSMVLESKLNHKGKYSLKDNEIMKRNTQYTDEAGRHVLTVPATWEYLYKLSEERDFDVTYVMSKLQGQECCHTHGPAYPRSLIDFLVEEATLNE
Method in brief: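 PURExpress in vitro transcription/translation supplied GST-tagged yeast transcription factors, either full-length or DNA-binding domain. Applied at about 100-200 nM to universal all-10-mer Agilent arrays double-stranded by primer extension, the bound protein was detected with fluorescent anti-GST. E-scores, modified Wilcoxon-Mann-Whitney statistics, were given by the Universal PBM Analysis Suite to ungapped eight-base words pooled with their reverse complements after masliner normalisation.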

Sequence | PBM E-score
CCAGTTGC | -0.248
GATCCATC | -0.0764
CATTGGGA | 0.00323
AATCAATA | 0.151
ACCGTTCG | 0.12
CGTGGCTA | -0.171
CATCAGCA | -0.0232
CCCCGGTC | -0.271
CGCTCTGA | -0.105
ACGAAGAC | -0.0817
AGGTCCAC | -0.341
ACTTAACG | -0.103
CACGCTGC | -0.159
GATCTCTA | -0.0106
CCTTCGAC | -0.159
CAAGAGGC | -0.15
ATGTTCGC | -0.102
AAAGCGGT | -0.0262
AAAATAGT | 0.12
AGCCCAAG | -0.189
ATCTCGTC | 0.0786
CCACTGCG | -0.0433
CAGTGTTC | 0.135
AAATCTGT | 0.0609
CCTGATAC | 0.224

Sequence | PBM E-score
GAGCGGCC | -0.198
ACAAGCGA | 0.184
GCTTGTGA | -0.156
CCAGTCTA | -0.13
CGGTAGTA | -0.0312
CAATTATA | 0.167
CGCCTTTA | 0.0625
AAATCTAC | 0.2
GCTGCCTA | -0.0151
ACGGGTGC | 0.079
CTGCTCTA | 0.0428
ATAGATGG | -0.127
GCGTGCTA | -0.296
CATGTTCC | -0.0249
CACCTATG | -0.101
ACCTGTCA | -0.0551
ACACCTAG | -0.0883
CGGCACGA | 0.089
ACGGTTGA | 0.0142
AGTACCCG | -0.0217
CAAAGGTC | -0.153
AAAATTCA | 0.242
GATCTACA | 0.00555
ACAGACCT | 0.123
GGGAACGA | -0.128

Sequence | PBM E-score
AGTCTTCG | -0.075
CCAGTCGA | -0.0553
AATCGGAT | 0.0545
CGAACCAG | 0.0735
GGTTGTTA | 0.166
AATGCAAT | -0.126
CCCTGTCA | -0.127
ATCGAGCG | 0.00361
AGGGCAGA | -0.127
ACCCTGGA | -0.181
TCTACCAA | 0.0569
AAATAGTG | 0.187
CCCACAAA | 0.176
CGGAGAAG | -0.149
CTTACGGA | -0.0822
GACTGGAA | -0.121
AACTCTCA | -0.069
CTCCTGGC | -0.0301
AGTAAGAT | 0.231
CAGTGGGA | -0.164
GGGTTGGA | -0.172
CATCAAAC | 0.173
CGGCTGGA | -0.164
ACGCCCAA | 0.0861
ACCTCTAG | -0.09

An excerpt of these results, tab-delimited.
Sequence	PBM E-score
AGCCCAAG	-0.189
ATCTCGTC	0.0786
CCACTGCG	-0.0433
CAGTGTTC	0.135
AAATCTGT	0.0609
CCTGATAC	0.224
ACAAGCGA	0.184
GCTTGTGA	-0.156
CCAGTCTA	-0.13
CGGTAGTA	-0.0312
CAATTATA	0.167
CGCCTTTA	0.0625
AAATCTAC	0.2
GCTGCCTA	-0.0151
ACGGGTGC	0.079
CTGCTCTA	0.0428
ATAGATGG	-0.127
GCGTGCTA	-0.296
CATGTTCC	-0.0249
CACCTATG	-0.101
ACCTGTCA	-0.0551
ACACCTAG	-0.0883
CGGCACGA	0.089
ACGGTTGA	0.0142
AGTACCCG	-0.0217
CAAAGGTC	-0.153
AAAATTCA	0.242
GATCTACA	0.00555
ACAGACCT	0.123
GGGAACGA	-0.128
AGTCTTCG	-0.075
CCAGTCGA	-0.0553
AATCGGAT	0.0545
CGAACCAG	0.0735
GGTTGTTA	0.166
AATGCAAT	-0.126
CCCTGTCA	-0.127
ATCGAGCG	0.00361
AGGGCAGA	-0.127
TCTACCAA	0.0569
AAATAGTG	0.187
CCCACAAA	0.176
CGGAGAAG	-0.149
CTTACGGA	-0.0822
GACTGGAA	-0.121
AACTCTCA	-0.069
CTCCTGGC	-0.0301
AGTAAGAT	0.231
CAGTGGGA	-0.164
GGGTTGGA	-0.172
CATCAAAC	0.173
CGGCTGGA	-0.164
ACGCCCAA	0.0861

(cont.)

Sequence | PBM E-score
AAAGTAAC | 0.166
GGCGCAAC | -0.138
AGTGAATA | 0.0943
AGTAATAC | 0.113
CGACAGTA | -0.0588
AGGCGCCC | -0.244
ACAAAGTA | 0.0375
AGTACATC | 0.00325
AACACACC | 0.155
ATATTGCC | 0.124
GGCACCAC | -0.148
AATTCCCT | 0.0542
CATTGCGC | 0.0202
ATCACCGA | 0.161
ATAGACCA | 0.103
TCCCCAGA | -0.2
GCGAGTAA | 0.173
TAAGTATA | 0.275
CCCACGGG | -0.296
AAGTGAGT | -0.0165
CGGTAAGA | -0.053
ACCAGTGC | -0.345
GTGCACTA | 0.0636
CACTAGTC | -0.105
AAGGAAGG | -0.194

Sequence | PBM E-score
GCTGTCAA | -0.106
TCAGAACA | 0.0982
CAAGCTCC | -0.295
AACTGTGC | -0.147
TGTCAACA | 0.0838
ATAGCCTC | -0.0226
AAACTTGG | -0.0251
CGCGCTAC | 0.161
GGTCCCGA | -0.111
GGGTTTCA | -0.0128
GCCGGATA | 0.0772
CTCTTTCC | -0.0604
ACACGGAG | -0.0548
CCTACTGA | 0.0127
ATGTAACC | -0.0665
CAGACAAC | 0.0898
ACTCGGTG | -0.174
CGATCGCC | 0.0236
CCAGCTAC | -0.0877
AAAGGAGC | -0.0479
CACGCTAC | -0.105
GAAGTACA | -0.0666
TAAGCCCA | 0.023
AACGTCCC | -0.14
CGAGTGTC | -0.0309

Random excerpt: 4 records from the list
Sequence | PBM E-score
ACTCGGTG | -0.174
ACGAAGAC | -0.0817
GTGCACTA | 0.0636
TCCCCAGA | -0.2

(continued)

Sequence | PBM E-score
GTGGACAA | 0.0878
AAGGGTCC | -0.285
CTATTACA | 0.163
GGGTCGGA | -0.298
ACTGGTGG | -0.139
GAACCTCA | -0.0916
CGGGTGTC | -0.15
CAGCTTTA | 0.119
AGCGCCTA | 0.118
AAGACTCC | -0.212
ACTAGCCA | -0.0537
GCCAAGAA | -0.0116
TCTCAAAA | 0.176
CAAGTGGC | 0.152
ATTCGGGG | 0.1
ATAAGCTG | 0.0821
CACCTGAC | -0.024
CGGCTCCC | -0.329
CGCGCTTC | -0.00635
AACAGCTT | 0.1
GGAGTAAA | 0.267
ATCGCGCC | 0.019
AACCATAT | 0.266
CGGAGCGA | 0.0816
GGTTAGGA | -0.198

Sequence | PBM E-score
GCACCGTA | -0.0116
GGTGCGGA | -0.0917
GAAGCCTC | -0.198
TGAGTCCA | -0.133
AATGATGT | 0.211
AGTTCCGG | -0.0393
AACTACAA | 0.233
GCCTTACC | -0.227
ACTCAGAG | -0.0226
AGACTCAT | -0.0103
TAGACATA | 0.112
CTAGTATA | -0.0257
AGGGTACT | -0.11
ATCCAGCG | 0.0902
CGCACAAA | 0.107
ACGAACCT | -0.0579
ATTCGGAA | 0.196
TACTTAAA | -0.0635
CGCAGGAA | 0.0102
CCTATCAA | 0.13
CAGCGGCG | 0.117
CAGGATGA | -0.0226
